Construct, isoform or probe ends are uncertain for at least one entry. A weaker result is weaker than the reference pair of the same experiment. Protein sequences can lack the tags named with them.
Target: T1, SydR' (WT, CC) (Sinorhizobium meliloti Rm2011) (UniProt Q92XY2)
T1 sequence (looked up): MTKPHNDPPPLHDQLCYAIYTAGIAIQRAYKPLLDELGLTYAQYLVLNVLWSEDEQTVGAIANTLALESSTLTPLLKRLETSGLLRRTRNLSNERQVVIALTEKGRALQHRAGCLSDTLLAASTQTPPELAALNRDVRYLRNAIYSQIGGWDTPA
Assay: EMSA
Settings: 1 uM NaOCl (oxidative inhibition); 10 mM Tris-HCl pH 8, 50 mM KCl, 0.5 mM EDTA, 10% glycerol, 0.5 mM DTT, 10 nM DNA, 25°C 25 min; 8% PAGE in 0.5x TBE; recombinant protein; residues 1-155; protein details: His6 (C-terminal as stated, pET28a NdeI/SalI); probe letters rebuilt from the primers and the genome

## TCTGGGCTCCTTTGCGCACCAATATAATCAAGATTACCGCGAAAACCAATATCGCGATAAGAGATATGTTGACGAGCAGTTCAATATCTGACAACTTAAATATATCGCGATAACAGTTATCGCTATCAACGAAAGGAAAAAGCC (double strand) [sydR-SMa2023 intergenic region, 144 bp]
  binding result: binds more weakly

Source: publication PMC11633110
